Reference: publication PMC10443802 (JCI Insight, 2023)
Values joined by “and” are separate entries in the source; they are usually repeats but may differ in a detail not shown here. Identical values can stand only once. Counter-ions that a name gives are not always drawn. Where a SMILES comes first, the peptide text is derived from it. [ ]: non-standard residue; d: D form. Hyp = O=C(O)[C@@H]1C[C@@H](O)CN1

Test system: OATP1B2
Assay: Untargeted metabolomics of plasma and DRG, WT vs OATP1B2-deficient mice
Format: in vivo, mouse
[1] = untargeted metabolomics, WT vs OATP1B2-deficient mice, supplement sheet "Figure 5B" (volcano plot)
[2] = untargeted metabolomics, sheet "Figure 5C", WT vs OATP1B2-deficient mice
[3] = untargeted metabolomics, WT vs OATP1B2-deficient mice, supplement sheet "Figure 5B"
[4] = Figure 5B source data (volcano plot), untargeted metabolomics, WT vs OATP1B2-deficient mice, log2 fold change of metabolite level

| SMILES | Log2FoldChange [1] | Log2FoldChange [2] | other results |
| --- | --- | --- | --- |
| CCCCCCC(=O)O [heptanoate (7:0)] | 0.4114 | -0.2009 | – |
| CCCCCCC(=O)NCC(=O)O [heptanoyl glycine] | 0.6041 | – | – |
| CCCCC/C=C/C/C=C/CCCCCC(=O)O [hexadecadienoate (16:2n6)] | – | – | Log2FoldChange [3]: -0.1361 |
| O=C(O)CCCCCCCCCCCCCCC(=O)O [hexadecanedioate (C16-DC)] | 1.07 | – | – |
| CCC=CCC=CCC=CCCCCCC(=O)O [hexadecatrienoate (16:3n3)] | – | 0.3334 | Log2FoldChange [3]: 0.02857 |
| CCCCCC(=O)OC(CC(=O)[O-])C[N+](C)(C)C (stereo not shown) [hexanoylcarnitine (C6)] | 0.7049 | 0.3448 | – |
| CCCCCC(=O)NCC(=O)O [hexanoylglycine] | 0.669 | – | – |
| CCCCCC(=O)NCCS(=O)(=O)O [hexanoyltaurine] | 0.4854 | – | – |
| NCCc1c[nH]cn1 [histamine] | – | 0.3219 | – |
| C[N+](C)(C)[C@@H](Cc1cnc[nH]1)C(=O)[O-] [histidine betaine (hercynine)*] | 0.3896 | – | – |
| COC(=O)[C@@H](N)Cc1cnc[nH]1 [histidine methyl ester] | – | 0.7655 | – |
| N[C@@H](Cc1c[nH]cn1)C(=O)O [histidine] | – | – | Log2FoldChange [3]: -0.08927 |
| C[C@H](NC(=O)[C@@H](N)Cc1cnc[nH]1)C(=O)O [histidylalanine] (H-His-Ala-OH) | – | 0.1763 | – |
| NCCCC(=O)N[C@@H](Cc1cnc[nH]1)C(=O)O [homocarnosine] | – | 0.3334 | – |
| NC(=O)NCCCC[C@H](N)C(=O)O [homocitrulline] | – | – | Log2FoldChange [3]: 0.189 |
| N[C@@H](CCO)C(=O)O [homoserine] | – | – | Log2FoldChange [4]: -0.5564 |
| C[N+]1(C)CCCC[C@H]1C(=O)[O-] [homostachydrine*] | 0.251 | – | – |
| COc1cc(CC(=O)O)ccc1OS(=O)(=O)O [homovanillate sulfate] | – | – | Log2FoldChange [3]: 0.08406 |
| C[C@H](CCC(=O)O)[C@H]1CC[C@H]2[C@@H]3[C@H](O)[C@H](O)[C@@H]4C[C@H](O)CC[C@]4(C)[C@H]3CC[C@]12C [hyocholate] | 2.4957 | – | – |
| C[C@H](CCC(=O)O)[C@H]1CC[C@H]2[C@@H]3C[C@H](O)[C@@H]4C[C@H](O)CC[C@]4(C)[C@H]3CC[C@]12C [hyodeoxycholate] | 3.874 | – | – |
| NCCS(=O)O [hypotaurine] | – | – | Log2FoldChange (mouse, in vivo): 0.3561 and 0.08406 |
| O=c1[nH]cnc2nc[nH]c12 [hypoxanthine] | 0.6508 | 0.08406 | – |
| O=C(O)[C@@H](O)Cc1cnc[nH]1 [imidazole lactate] | 0.4957 | 0.1375 | – |
| O=C(O)CCc1cnc[nH]1 [imidazole propionate] | – | -0.415 | Log2FoldChange [4]: -1.737 |
| O=C(O)c1c[nH]c2ccccc12 [indole-3-carboxylate] | – | – | Log2FoldChange [4]: -0.1844 |
| CC(=O)Oc1c[nH]c2ccccc12 [indoleacetate] | – | – | Log2FoldChange [3]: 0.111 |
| O=C(O)C(O)Cc1c[nH]c2ccccc12 (stereo not shown) [indolelactate] | – | -0.5146 | – |

| SMILES | Log2FoldChange [1] | Log2FoldChange [2] | other results |
| --- | --- | --- | --- |
| O=C(O)CCc1c[nH]c2ccccc12 [indolepropionate] | 0.263 | – | – |
| O=C(O)CNC(=O)CCc1c[nH]c2ccccc12 [indolepropionylglycine] | 0.4647 | – | – |
| O=C1Cc2ccccc2N1 [indolin-2-one] | 0.5945 | – | – |
| O=c1[nH]cnc2c1ncn2[C@@H]1O[C@H](CO)[C@@H](O)[C@H]1O [inosine] | 1.05 | – | – |
| CC(C)C(=O)O[C@H](CC(=O)[O-])C[N+](C)(C)C [isobutyrylcarnitine (C4)] | 0.4854 | 0.4647 | – |
| CC(C)C(=O)NCC(=O)O [isobutyrylglycine] | – | – | Log2FoldChange [3]: 0.02857 |
| CC(C)CCC(=O)OC(CC(=O)[O-])C[N+](C)(C)C (stereo not shown) [isocaproylcarnitine] | 0.516 | – | – |
| CC(C)CCC(=O)NCC(=O)O [isocaproylglycine] | 0.6508 | – | – |
| O=C(O)CC(C(=O)O)C(O)C(=O)O (stereo not shown) [isocitrate] | – | – | Log2FoldChange [4]: -0.1844 |
| O=C1CC(C(=O)O)C(C(=O)O)O1 (stereo not shown) [isocitric lactone] | 0.2869 | – | – |
| C[C@H](CCC(=O)O)[C@H]1CC[C@H]2[C@@H]3C[C@H](O)[C@@H]4C[C@@H](O)CC[C@]4(C)[C@H]3CC[C@]12C [isohyodeoxycholate] | 1.299 | – | – |
| CC[C@H](C)[C@H](N)C(=O)O [isoleucine] | – | 0.09761 | – |
| CC[C@H](C)[C@H](N)C(=O)NCC(=O)O [isoleucylglycine] (H-Ile-Gly-OH) | – | 0.251 | – |
| CC[C@H](C)[C@H](N)C(=O)N1C[C@H](O)C[C@H]1C(=O)O [isoleucylhydroxyproline*] (H-Ile-[Hyp]-OH) | – | – | Log2FoldChange [3]: 0.1375 |
| CC(C)CC(=O)O[C@H](CC(=O)[O-])C[N+](C)(C)C [isovalerylcarnitine (C5)] | 0.4854 | 0.4957 | – |
| CC(C)CC(=O)NCC(=O)O [isovalerylglycine] | 0.5656 | – | – |
| O=C(O)c1cc(=O)c2ccccc2[nH]1 [kynurenate] | 0.3219 | – | – |
| Nc1ccccc1C(=O)CC(N)C(=O)O (stereo not shown) [kynurenine] | 0.3334 | 0.05658 | – |
| CCCCCCCCCCCC(=O)O [laurate (12:0)] | – | 0.09761 | Log2FoldChange [3]: -0.1203 |
| CCCCCCCCCCCC(=O)O[C@H](CC(=O)[O-])C[N+](C)(C)C [laurylcarnitine (C12)] | – | – | Log2FoldChange [3]: 0.2016 |
| CC(C)C[C@H](N)C(=O)O [leucine] | – | 0.09761 | Log2FoldChange [3]: -0.0145 |
| CC(C)C[C@H](N)C(=O)N1C[C@H](O)C[C@H]1C(=O)O [leucylhydroxyproline*] (H-Leu-[Hyp]-OH) | – | – | Log2FoldChange [3]: 0.1763 |
| CCCCCCCCCCCCC/C=C/[C@@H](O)[C@H](COP(=O)([O-])OCC[N+](C)(C)C)NC(=O)CCCCCCCCCCCCCCCCCCCCCCC [lignoceroyl sphingomyelin (d18:1/24:0)] | – | -0.7612 | Log2FoldChange [3]: 0 |
| CCCCC/C=C\C/C=C\CCCCCCCC(N)=O [linoleamide (18:2n6)] | 0.4436 | – | – |
| CCCCC/C=C\C/C=C\CCCCCCCC(=O)O [linoleate (18:2n6)] | – | 0.3561 | – |
| CCCCC/C=C\C/C=C\CCCCCCCC(=O)NCCO [linoleoyl ethanolamide] | – | 0.4957 | Log2FoldChange [4]: -0.3585 |
| CCCCC/C=C\C/C=C\CCCCCCCC(=O)O[C@H](CC(=O)[O-])C[N+](C)(C)C [linoleoylcarnitine (C18:2)*] | 0.696 | 0.3785 | – |

| SMILES | Log2FoldChange [1] | Log2FoldChange [2] | other results |
| --- | --- | --- | --- |
| NCCCC[C@H](N)C(=O)O [lysine] | – | – | Log2FoldChange (mouse, in vivo): -0.1203 and 0.05658 |
| CC(C)C[C@H](NC(=O)[C@@H](N)CCCCN)C(=O)O [lysylleucine] (H-Lys-Leu-OH) | – | 0.3219 | – |
| O=C(O)[C@@H](O)[C@@H](O)[C@H](O)CO [lyxonate] | – | -0.1844 | – |
| O=C(O)CC(O)C(=O)O (stereo not shown) [malate] | 0.2388 | 0.05658 | – |
| Cc1occc(=O)c1OS(=O)(=O)O [maltol sulfate] | – | – | Log2FoldChange [3]: -0.0145 |
| OC[C@H]1OC(O)[C@@H](O)[C@@H](O)[C@@H]1O (stereo partly shown) [mannose] | – | -0.1844 | Log2FoldChange [3]: -0.0145 |
| CCCCCCCCCCCCCCCCC(N)=O [margaramide (17:0)*] | 0.5361 | – | – |
| CCCCCCCCCCCCCCCCC(=O)O [margarate (17:0)] | – | – | Log2FoldChange [3]: -0.1203 |
| CCCCCCCCCCCCCCCCC(=O)OC(CC(=O)[O-])C[N+](C)(C)C (stereo not shown) [margaroylcarnitine (C17)*] | 0.669 | -0.1361 | – |
| CCCCCCCC/C=C\C/C=C\C/C=C\CCCC(=O)O [mead acid (20:3n9)] | – | – | Log2FoldChange [3]: -0.08927 |
| CS(=O)(=O)CC[C@H](N)C(=O)O [methionine sulfone] | – | -0.1203 | Log2FoldChange [3]: 0 |
| C[S+]([O-])CC[C@H](N)C(=O)O (stereo partly shown) [methionine sulfoxide] | 0.275 | 0.08406 | – |
| COC(=O)Cc1c[nH]c2ccccc12 [methyl indole-3-acetate] | – | – | Log2FoldChange [4]: -0.4739 |
| COC(=O)c1ccc(OS(=O)(=O)O)c(OC)c1 [methyl vanillate sulfate] | 0.3334 | – | – |
| CC(C(=O)O)C(=O)O [methylmalonate (MMA)] | – | -0.074 | Log2FoldChange [3]: 0.08406 |
| COP(=O)(O)O [methylphosphate] | 0.3448 | 0.1763 | – |
| CC(CC(=O)O)C(=O)O (stereo not shown) [methylsuccinate] | 0.2388 | 0.4436 | – |
| CC(O)(CCO)CC(=O)O (stereo not shown) [mevalonate] | 0.3103 | – | – |
| CCCCCCCCCCCCCC(=O)O [myristate (14:0)] | – | 0.05658 | Log2FoldChange [4]: -0.2515 |
| CCCC/C=C/CCCCCCCC(=O)O [myristelaidate (tr 14:1n5)] | – | 0.1763 | – |
| CCCC/C=C\CCCCCCCC(=O)O [myristoleate (14:1n5)] | – | – | Log2FoldChange [3]: -0.1681 |
| CCCC/C=C\CCCCCCCC(=O)O[C@H](CC(=O)[O-])C[N+](C)(C)C [myristoleoylcarnitine (C14:1)*] | 0.433 | – | – |
| CCCCCCCCCCCCCC(=O)O[C@H](CC(=O)[O-])C[N+](C)(C)C [myristoylcarnitine (C14)] | 0.4751 | – | – |
| CCCCCCCC/C=C\CCCCCCCCCCCCCC(=O)OC(CC(=O)[O-])C[N+](C)(C)C (stereo not shown) [nervonoylcarnitine (C24:1)*] | – | -0.7612 | – |
| NC(=O)c1ccc[n+]([C@@H]2O[C@H](COP(=O)([O-])OP(=O)(O)OC[C@H]3O[C@@H](n4cnc5c(N)ncnc54)[C@H](O)[C@@H]3O)[C@@H](O)[C@H]2O)c1 [nicotinamide adenine dinucleotide (NAD+)] | – | 0.275 | – |
| NC(=O)c1ccc[n+]([C@@H]2O[C@H](CO)[C@@H](O)[C@H]2O)c1 [nicotinamide riboside] | 0.3103 | – | – |
